In PMC8165180:
Results are given in words; binding and its absence hold for the method and conditions named. In cells and extracts the contact can be indirect. Some binding calls cover weakened binding; strength is not graded here. Blank lines part the entries; values can stand above or below the binder they belong to.

By UniProt entry, the sequences of proteins in these tests, tags left out.
UniProt Q16875: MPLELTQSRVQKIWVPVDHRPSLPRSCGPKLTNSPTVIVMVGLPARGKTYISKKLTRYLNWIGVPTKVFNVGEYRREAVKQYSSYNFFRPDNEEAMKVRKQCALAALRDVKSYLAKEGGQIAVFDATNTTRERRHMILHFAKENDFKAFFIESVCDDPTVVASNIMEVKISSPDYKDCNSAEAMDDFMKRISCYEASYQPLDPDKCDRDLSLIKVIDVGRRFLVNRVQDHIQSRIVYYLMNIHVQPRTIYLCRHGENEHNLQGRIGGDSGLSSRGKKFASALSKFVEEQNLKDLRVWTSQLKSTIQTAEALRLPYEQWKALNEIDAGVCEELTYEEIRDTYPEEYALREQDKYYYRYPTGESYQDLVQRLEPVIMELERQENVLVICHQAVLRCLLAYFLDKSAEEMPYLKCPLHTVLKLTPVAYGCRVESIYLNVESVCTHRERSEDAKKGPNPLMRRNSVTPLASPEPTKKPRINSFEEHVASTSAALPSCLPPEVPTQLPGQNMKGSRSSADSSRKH

Columns and labels:
[1] = biological target: 6-phosphofructo-2-kinase/fructose-2,6-biphosphatase 3 (PFKFB3) (human (endogenous in RPMI8226)) (UniProt Q16875); test: co-IP; endogenous proteins, RPMI8226 whole-cell extracts in RIPA buffer, beads conjugated with specific antibody, 2 h at 4°C, Western blot
PFKFB3 in HEK293T cells = PFKFB3 in HEK293T cells (UniProt Q16875); test: co-IP; HEK293T whole-cell extracts in RIPA buffer, beads conjugated with specific antibody, 2 h at 4°C, Western blot

binding [1]: binds
B1: lysine demethylase KDM2A (protein, UniProt Q9Y2K7 1-1162)
chain: MEPEEERIRYSQRLRGTMRRRYEDDGISDDEIEGKRTFDLEEKLHTNKYNANFVTFMEGKDFNVEYIQRGGLRDPLIFKNSDGLGIKMPDPDFTVNDVKMCVGSRRMVDVMDVNTQKGIEMTMAQWTRYYETPEEEREKLYNVISLEFSHTRLENMVQRPSTVDFIDWVDNMWPRHLKESQTESTNAILEMQYPKVQKYCLMSVRGCYTDFHVDFGGTSVWYHIHQGGKVFWLIPPTAHNLELYENWLLSGKQGDIFLGDRVSDCQRIELKQGYTFVIPSGWIHAVYTPTDTLVFGGNFLHSFNIPMQLKIYNIEDRTRVPNKFRYPFYYEMCWYVLERYVYCITNRSHLTKEFQKESLSMDLELNGLESGNGDEEAVDREPRRLSSRRSVLTSPVANGVNLDYDGLGKTCRSLPSLKKTLAGDSSSDCSRGSHNGQVWDPQCAPRKDRQVHLTHFELEGLRCLVDKLESLPLHKKCVPTGIEDEDALIADVKILLEELANSDPKLALTGVPIVQWPKRDKLKFPTRPKVRVPTIPITKPHTMKPAPRLTPVRPAAASPIVSGARRRRVRCRKCKACVQGECGVCHYCRDMKKFGGPGRMKQSCVLRQCLAPRLPHSVTCSLCGEVDQNEETQDFEKKLMECCICNEIVHPGCLQMDGEGLLNEELPNCWECPKCYQEDSSEKAQKRKMEESDEEAVQAKVLRPLRSCDEPLTPPPHSPTSMLQLIHDPVSPRGMVTRSSPGAGPSDHHSASRDERFKRRQLLRLQATERTMVREKENNPSGKKELSEVEKAKIRGSYLTVTLQRPTKELHGTSIVPKLQAITASSANLRHSPRVLVQHCPARTPQRGDEEGLGGEEEEEEEEEEEDDSAEEGGAARLNGRGSWAQDGDESWMQREVWMSVFRYLSRRELCECMRVCKTWYKWCCDKRLWTKIDLSRCKAIVPQALSGIIKRQPVSLDLSWTNISKKQLTWLVNRLPGLKDLLLAGCSWSAVSALSTSSCPLLRTLDLRWAVGIKDPQIRDLLTPPADKPGQDNRSKLRNMTDFRLAGLDITDATLRLIIRHMPLLSRLDLSHCSHLTDQSSNLLTAVGSSTRYSLTELNMAGCNKLTDQTLIYLRRIANVTLIDLRGCKQITRKACEHFISDLSINSLYCLSDEKLIQKIS

binding (PFKFB3 in HEK293T cells): binds
B2: KDM2A in HEK293T cells (protein, UniProt Q9Y2K7 1-1162)
chain: B1 chain
